Some of the results follow. Single values are uncertain, as repeats are few or missing.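 Cells were imaged in 1,536-well plates, and nuclei stained with an antibody against cleaved PARP were counted against all DNA-stained nuclei to give the apoptosis fraction. Screening doses were chosen to leave most cells alive, and resting and induced cleaved-PARP levels differ strongly between cell lines.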
Tests used:
Assay in all cases: cleaved PARP positive nuclei fraction relative to DMSO control; melanoma cells; higher = more apoptosis
Details in all cases: library dose: low library concentration; 72 h
MZ2-MEL = system: MZ2-MEL
MeWo = system: MeWo
RPMI7951 = system: RPMI7951
RVH-421 = system: RVH-421
SkMel28 = system: SkMel28
SkMel2 = system: SkMel2
SkMel30 = system: SkMel30
UACC62 = system: UACC62
WM115 = system: WM115
WM1716 = system: WM1716
WM1745 = system: WM1745
WM3526 = system: WM3526
WM3619 = system: WM3619
WM451Lu = system: WM451Lu

| Compound | cleaved PARP positive nuclei fraction (MZ2-MEL) [%] | cleaved PARP positive nuclei fraction (MeWo) [%] | cleaved PARP positive nuclei fraction (RPMI7951) [%] | cleaved PARP positive nuclei fraction (RVH-421) [%] | cleaved PARP positive nuclei fraction (SkMel28) [%] | cleaved PARP positive nuclei fraction (SkMel2) [%] | cleaved PARP positive nuclei fraction (SkMel30) [%] | cleaved PARP positive nuclei fraction (UACC62) [%] | cleaved PARP positive nuclei fraction (WM115) [%] | cleaved PARP positive nuclei fraction (WM1716) [%] | cleaved PARP positive nuclei fraction (WM1745) [%] | cleaved PARP positive nuclei fraction (WM3526) [%] | cleaved PARP positive nuclei fraction (WM3619) [%] | cleaved PARP positive nuclei fraction (WM451Lu) [%] |
| --- | --- | --- | --- | --- | --- | --- | --- | --- | --- | --- | --- | --- | --- | --- |
| COc1cc([C@@H]2c3cc4c(cc3[C@@H](O[C@@H]3O[C@@H]5CO[C@@H](C)O[C@H]5[C@H](O)[C@H]3O)[C@H]3COC(=O)[C@H]23)OCO4)cc(OC)c1O [etoposide] + C[C@]1(O)C[C@@H](c2nc(-c3ccc4ccc(-c5ccccc5)nc4c3)c3c(N)nccn32)C1 [OSI906] (first compound 0.02 µM, partner dose 0.4 µM) | 83.1 | 73.5 | 108 | 106 | 95.1 | 144 | 54.3 | 64.6 | 283 | 108 | 118 | 43.2 | 103 | 119 |
| N#CC[C@H](C1CCCC1)n1cc(-c2ncnc3[nH]ccc23)cn1 [ruxolitinib] + C#Cc1cccc(Nc2ncnc3cc(OCCOC)c(OCCOC)cc23)c1 [erlotinib] (first compound 1 µM, partner dose 0.8 µM) | 183 | 146 | 164 | 88.1 | 218 | 84.2 | 87.7 | 29.5 | 135 | 91.8 | 283 | 460 | 92.9 | 99 |
| N#CC[C@H](C1CCCC1)n1cc(-c2ncnc3[nH]ccc23)cn1 [ruxolitinib] + O=C(O)[C@@H]1[O][Sb](=[O])([O][Sb]2(=[O])[O][C@H]([C@H](O)CO)[C@H](O)[C@H](C(=O)O)[O]2)[O][C@H]([C@H](O)CO)[C@@H]1O [stibogluconate] (first compound 1 µM, partner dose 2 µM) | 74.2 | 117 | 145 | 44.7 | 136 | 232 | 74.7 | 83.9 | 114 | 74.7 | 96.4 | 37.8 | 95.9 | 130 |
| O=c1[nH]nc(Sc2ncc([N+](=O)[O-])s2)n1-c1ccc2c(c1)OCCO2 + COCC[n+]1c2c(n(Cc3cnccn3)c1C)C(=O)c1ccccc1C2=O [YM155] (first compound 0.2 µM, partner dose 0.0004 µM) | 106 | 201 | 177 | 42.7 | 93.2 | 118 | 47 | 304 | 195 | 70.9 | 95.5 | 170 | 176 | 356 |
| O=c1[nH]nc(Sc2ncc([N+](=O)[O-])s2)n1-c1ccc2c(c1)OCCO2 + O=C(O)[C@@H]1[O][Sb](=[O])([O][Sb]2(=[O])[O][C@H]([C@H](O)CO)[C@H](O)[C@H](C(=O)O)[O]2)[O][C@H]([C@H](O)CO)[C@@H]1O [stibogluconate] (first compound 0.2 µM, partner dose 2 µM) | 113 | 81.4 | 141 | 57.5 | 152 | 67.5 | 66.5 | 43.1 | 58.9 | 90.9 | 107 | 91.1 | 106 | 92.6 |
| Cc1ccc(Nc2nccc(N(C)c3ccc4c(C)n(C)nc4c3)n2)cc1S(N)(=O)=O [Pazopanib] + CS(=O)(=O)c1ccc(C(=O)Nc2ccc(Cl)c(-c3ccccn3)c2)c(Cl)c1 [vismodegib] (first compound 0.4 µM, partner dose 1 µM) | 42.8 | 114 | 42.7 | 100 | 40.8 | 17.1 | 171 | 109 | 113 | 119 | 88.5 | 57.3 | 97.8 | 53.8 |
| CCCCCCCCCCCCCCCCCCOP(=O)([O-])OC1CC[N+](C)(C)CC1 [Perifosine] + Nc1nc(F)nc2c1ncn2[C@@H]1O[C@H](CO)[C@@H](O)[C@@H]1O [fludarabine] (first compound 0.4 µM, partner dose 0.2 µM) | 126 | 740 | 138 | 61.2 | 86.6 | 761 | 2790 | 34.3 | 145 | 75 | 106 | 168 | 101 | 117 |
| O=C(Nc1cc(C(F)(F)F)cc(C(F)(F)F)c1)c1cc(Cl)ccc1O + O=C(O)c1ccc2c(c1)nc(Nc1cccc(Cl)c1)c1ccncc12 [CX4945] (first compound 0.016 µM, partner dose 0.4 µM) | 139 | 63.4 | 91.6 | 113 | 144 | 64.3 | 22.9 | 120 | 115 | 31.9 | 82.5 | 79 | 186 | 77.8 |
| COc1cc([C@@H]2c3cc4c(cc3[C@@H](O[C@@H]3O[C@@H]5CO[C@@H](C)O[C@H]5[C@H](O)[C@H]3O)[C@H]3COC(=O)[C@H]23)OCO4)cc(OC)c1O [etoposide] + Cc1ccc(Nc2nccc(N(C)c3ccc4c(C)n(C)nc4c3)n2)cc1S(N)(=O)=O [Pazopanib] (first compound 0.02 µM, partner dose 0.4 µM) | 106 | 75.4 | 95.6 | 358 | 156 | 82.7 | 86.7 | 43.1 | 55.8 | 39.1 | 98.6 | 196 | 125 | 87.2 |
| Cc1cn(-c2cc(NC(=O)c3ccc(C)c(Nc4nccc(-c5cccnc5)n4)c3)cc(C(F)(F)F)c2)cn1 [nilotinib] + Nc1ccn([C@@H]2O[C@H](CO)[C@@H](O)C2(F)F)c(=O)n1 [gemcitabine] (first compound 0.2 µM, partner dose 0.0004 µM) | 155 | 97.2 | 95.7 | 89.9 | 203 | 167 | 208 | 170 | 97.4 | 95.2 | 108 | 90.6 | 93.7 | 86.6 |
| N#CC[C@H](C1CCCC1)n1cc(-c2ncnc3[nH]ccc23)cn1 [ruxolitinib] + COc1ccc(C2=N[C@@H](c3ccc(Cl)cc3)[C@@H](c3ccc(Cl)cc3)N2C(=O)N2CCNC(=O)C2)c(OC(C)C)c1 [Nutlin-3] (first compound 1 µM, partner dose 0.1 µM) | 75.3 | 147 | 17.1 | 62.8 | 211 | 64.9 | 38.2 | 133 | 152 | 58.3 | 85.3 | 54.9 | 67.8 | 49.5 |
| CC[C@]1(O)C[C@H]2CN(CCc3c([nH]c4ccccc34)[C@@](C(=O)OC)(c3cc4c(cc3OC)N(C=O)[C@H]3[C@@](O)(C(=O)OC)[C@H](OC(C)=O)[C@]5(CC)C=CCN6CC[C@]43[C@@H]65)C2)C1 [vincristine] + CS(=O)(=O)c1ccc(C(=O)Nc2ccc(Cl)c(-c3ccccn3)c2)c(Cl)c1 [vismodegib] (first compound 0.0001 µM, partner dose 1 µM) | 52.8 | 147 | 134 | 112 | 122 | 124 | 93.9 | 591 | 1530 | 377 | 105 | 23.6 | 168 | 118 |
| CC[C@]1(O)C[C@H]2CN(CCc3c([nH]c4ccccc34)[C@@](C(=O)OC)(c3cc4c(cc3OC)N(C=O)[C@H]3[C@@](O)(C(=O)OC)[C@H](OC(C)=O)[C@]5(CC)C=CCN6CC[C@]43[C@@H]65)C2)C1 [vincristine] + CC1(C)CCC(c2ccc(Cl)cc2)=C(CN2CCN(c3ccc(C(=O)NS(=O)(=O)c4ccc(N[C@H](CCN5CCOCC5)CSc5ccccc5)c(S(=O)(=O)C(F)(F)F)c4)cc3)CC2)C1 [ABT263] (first compound 0.0001 µM, partner dose 0.4 µM) | 192 | 457 | 210 | 202 | 82 | 140 | 73.1 | 64.2 | 192 | 156 | 261 | 35.9 | 219 | 270 |
| COc1cc([C@@H]2c3cc4c(cc3[C@@H](O[C@@H]3O[C@@H]5CO[C@@H](C)O[C@H]5[C@H](O)[C@H]3O)[C@H]3COC(=O)[C@H]23)OCO4)cc(OC)c1O [etoposide] + COc1ccc(C2=N[C@@H](c3ccc(Cl)cc3)[C@@H](c3ccc(Cl)cc3)N2C(=O)N2CCNC(=O)C2)c(OC(C)C)c1 [Nutlin-3] (first compound 0.02 µM, partner dose 0.1 µM) | 41.4 | 103 | 109 | 178 | 83.4 | 151 | 112 | 56 | 93.3 | 44.1 | 96.3 | 70.1 | 102 | 52.3 |
| CCCCCCCCCCCCCCCCCCOP(=O)([O-])OC1CC[N+](C)(C)CC1 [Perifosine] + C=CCNC1=C2C[C@@H](C)C[C@H](OC)[C@H](O)[C@@H](C)/C=C(\C)[C@H](OC(N)=O)[C@@H](OC)/C=C\C=C(/C)C(=O)NC(=CC1=O)C2=O [Tanespimycin] (first compound 0.4 µM, partner dose 0.002 µM) | 42 | 42.6 | 249 | 94.1 | 86 | 88.8 | 68.7 | 53.5 | 100 | 147 | 115 | 44.5 | 92.6 | 164 |
| Cc1cn(-c2cc(NC(=O)c3ccc(C)c(Nc4nccc(-c5cccnc5)n4)c3)cc(C(F)(F)F)c2)cn1 [nilotinib] + C#Cc1cccc(Nc2ncnc3cc(OCCOC)c(OCCOC)cc23)c1 [erlotinib] (first compound 0.2 µM, partner dose 0.8 µM) | 82.2 | 84 | 311 | 26.3 | 71.3 | 98.5 | 102 | 445 | 20.9 | 73.5 | 110 | 51.4 | 94.3 | 62.1 |
| Cc1cn(-c2cc(NC(=O)c3ccc(C)c(Nc4nccc(-c5cccnc5)n4)c3)cc(C(F)(F)F)c2)cn1 [nilotinib] + Cn1sc(=O)n(Cc2ccccc2)c1=O [TDZD-8] (first compound 0.2 µM, partner dose 0.4 µM) | 63.6 | 111 | 62.5 | 36.5 | 109 | 85.9 | 87.2 | 140 | 85.7 | 56.7 | 101 | 283 | 67.6 | 80.4 |

For reference, part of the list above:

| Compound | cleaved PARP positive nuclei fraction (MZ2-MEL) [%] | cleaved PARP positive nuclei fraction (MeWo) [%] | cleaved PARP positive nuclei fraction (RPMI7951) [%] | cleaved PARP positive nuclei fraction (RVH-421) [%] | cleaved PARP positive nuclei fraction (SkMel28) [%] | cleaved PARP positive nuclei fraction (SkMel2) [%] | cleaved PARP positive nuclei fraction (SkMel30) [%] | cleaved PARP positive nuclei fraction (UACC62) [%] | cleaved PARP positive nuclei fraction (WM115) [%] | cleaved PARP positive nuclei fraction (WM1716) [%] | cleaved PARP positive nuclei fraction (WM1745) [%] | cleaved PARP positive nuclei fraction (WM3526) [%] | cleaved PARP positive nuclei fraction (WM3619) [%] | cleaved PARP positive nuclei fraction (WM451Lu) [%] |
| --- | --- | --- | --- | --- | --- | --- | --- | --- | --- | --- | --- | --- | --- | --- |
| CC[C@]1(O)C[C@H]2CN(CCc3c([nH]c4ccccc34)[C@@](C(=O)OC)(c3cc4c(cc3OC)N(C=O)[C@H]3[C@@](O)(C(=O)OC)[C@H](OC(C)=O)[C@]5(CC)C=CCN6CC[C@]43[C@@H]65)C2)C1 [vincristine] + CS(=O)(=O)c1ccc(C(=O)Nc2ccc(Cl)c(-c3ccccn3)c2)c(Cl)c1 [vismodegib] (first compound 0.0001 µM, partner dose 1 µM) | 52.8 | 147 | 134 | 112 | 122 | 124 | 93.9 | 591 | 1530 | 377 | 105 | 23.6 | 168 | 118 |
| CC[C@]1(O)C[C@H]2CN(CCc3c([nH]c4ccccc34)[C@@](C(=O)OC)(c3cc4c(cc3OC)N(C=O)[C@H]3[C@@](O)(C(=O)OC)[C@H](OC(C)=O)[C@]5(CC)C=CCN6CC[C@]43[C@@H]65)C2)C1 [vincristine] + CC1(C)CCC(c2ccc(Cl)cc2)=C(CN2CCN(c3ccc(C(=O)NS(=O)(=O)c4ccc(N[C@H](CCN5CCOCC5)CSc5ccccc5)c(S(=O)(=O)C(F)(F)F)c4)cc3)CC2)C1 [ABT263] (first compound 0.0001 µM, partner dose 0.4 µM) | 192 | 457 | 210 | 202 | 82 | 140 | 73.1 | 64.2 | 192 | 156 | 261 | 35.9 | 219 | 270 |

From the supplement of paper PMC4604168 (melanoma cell lines)
